Results: patent publication US20200199241A1
These are yes or no findings as the source states them, for the method shown. Some binding calls cover weakened binding; strength is not graded here.

Protein sequences, listed by entry. Tags and fused reporters are not part of them. Residues count along the entry.
UniProt P05231, residues 30-212: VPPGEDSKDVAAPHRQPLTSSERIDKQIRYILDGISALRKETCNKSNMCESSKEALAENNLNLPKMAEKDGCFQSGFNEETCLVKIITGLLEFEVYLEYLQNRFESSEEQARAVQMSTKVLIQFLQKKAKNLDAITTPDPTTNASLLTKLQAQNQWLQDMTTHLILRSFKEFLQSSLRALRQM

Biological target: IL-6 (biotin-labeled) (UniProt P05231)
Assay: phage ELISA on biotin-labeled IL-6, […] CaCl2 against 1 mM EDTA

B1: antibody 6KC4-1#85 (Fab, V domains shown)
VH: EVQLVESGGGLVQPGGSLRLSCAASGFTFSSYEMNWVRQAPGKGLEWVSYISSSGSTIYYADSVKGRFTISRDNAKNSLYLQMNSLRAEDTAVYYCARDAPYYYDSSGYTDAFDIWGQGTMVTVSS
VL: EIVLTQSPATLSLSPGERATLSCRASQSVSSYLAWYQQKPGQAPRLLIFDASNRAAGIPARFSGSGSGTDFTLTISSLEPEDFAVYYCQQFDKWVTFGGGTTVEIR
- binding: binds
